From patent publication US20150164117A1, “ENCAPSULATION OF FRAGRANCE AND/OR FLAVORS IN SILK FIBROIN BIOMATERIALS” (Tufts University, priority 2012, published 2015)
At least one structure is not confirmed: it was looked up by name or label, or the drawing left a doubt. Some of these results come from one statement about several compounds together.

Assay: Dissolution of untreated loaded silk films and release of load in aqueous medium
Type: physicochemical
Conditions: for Time to begin dissolving: untreated dye-loaded silk film in ~37° C. water
Protocol: Rapid dissolution of films loaded with a dye and release of the dye from the films occur when the films are immersed in ˜37° C. buffer (FIG. 10). Dissolvable silk films loaded with an odor-releasing substance and/or flavoring substance (e.g., ˜0.5, 0.25 or 0.125 mg of adenosine per 0.2 mm^2 film) released the majority of the drug load (approx. 80%) within 15 minutes of exposure to 37° C. phosphate buffered saline (PBS) (Data not shown).

| Time to full dissolution (untreated dye-loaded silk film immersed in ~37° C. water) | Time to begin dissolving | Compound |
| --- | --- | --- |
| about 30 minutes | ≤ 3 min | O=C1OC2(c3ccc(O)cc3Oc3cc(O)ccc32)c2ccccc21 [fluorescein] |
|  | ≤ 3 min | O=C1/C(=C2\Nc3ccc(S(=O)(=O)[O-])cc3C2=O)Nc2ccc(S(=O)(=O)[O-])cc21.[Na+].[Na+] [indigo carmine] |
